Measurements published in PubChem BioAssay AID1259415 (National Center for Advancing Translational Sciences (NCATS), 2018).
Hit rate of the full screen: of about 410,000 compounds, about 18,000 (4.4%) were called active. Inconclusive means that the source gave no clear call. Such entries were picked first, then a sample of the others. No stated cut-off is given here; in the data, active means activity change below about -60%; inconclusive means no clear call, values can overlap the other calls; inactive means above about -39%.
On the % scale 0 is the no-effect control and ±100 the full control effect.

Experiment: qHTS Assay for inhibitors of the human cytomegalovirus (HCMV)
Conditions: HFF cells, HCMV-luciferase reporter, 72 h; at 57.5 µM; active compounds read low
Summary of the method: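 Human foreskin fibroblasts infected with luciferase-reporter HCMV at MOI 1 PFU/cell, compounds at two doses. Luciferase measured 72 h post infection; normalized to buffer-only basal and Salinomycin (10uM) controls.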
In the case of `CCCCc1c(-c2ccccc2OC)ncn1CCc1cccc(Cl)c1`, the activity change, negative = inhibition is reported as inconclusive: -47.7%.
With `C(#CCN1CCCC1)CC(c1ccccc1)c1ccccc1` the activity change, negative = inhibition was inconclusive: -42.4%.
In the case of `CCN(CC)CC(O)CN(c1ccccc1)S(=O)(=O)c1ccc2ccccc2c1` (centres undefined), the activity change, negative = inhibition is reported as active: -67.4%.
In the case of `CSc1ccc(CN2CCC(C)(Oc3ccc(C(C)=O)cc3)C2)cc1` (centres undefined), the activity change, negative = inhibition is reported as inactive: -23.3%.
In the case of `Cc1c2cnn(CC(=O)N3CCC4(CC3)OCCO4)c(=O)c2c(C)n1Cc1ccccc1Cl`, the activity change, negative = inhibition is reported as inconclusive: -58.3%.
In the case of `Cc1cc(N(CCCl)CCCl)ccc1C=NNC(=O)c1cccnc1`, the activity change, negative = inhibition is reported as inconclusive: -45.4%.
With `Cc1sc2nc(CN3CCOCC3)nc(NS(=O)(=O)c3cc(Cl)ccc3Cl)c2c1C` the activity change, negative = inhibition was active: -106%.
With `Cc1cc(SCC(=O)N/N=C/c2ccc(O)c(O)c2)nc2ccccc12` the activity change, negative = inhibition was inactive: -16.4%.
For `CCC(C)N1CCC(Oc2ccc(C(=O)NCc3ccccn3)cc2)CC1` (centres undefined), the activity change, negative = inhibition was inactive: -34.3%.
In the case of `CCN(CC(=O)Nc1cc(Cl)cc(Cl)c1)CC(=O)NC1CCS(=O)(=O)C1` (centres undefined), the activity change, negative = inhibition is reported as inactive: -28.2%.
With `Cc1cccc(NC(=O)CSc2nnc(CNC(=O)c3cccc(C)c3)n2-c2ccccc2)c1` the activity change, negative = inhibition was inconclusive: -54%.
In the case of `COc1ccc(/C=N/NC(=O)c2[nH]c3ccc(Cl)cc3c2-c2ccccc2)c(C(=O)O)c1OC`, the activity change, negative = inhibition is reported as active: -99.4%.
For `CCN(CC)Cc1c(O)ccc2c(=O)c(-c3ccc4c(c3)OCCO4)coc12`, the activity change, negative = inhibition was inconclusive: -55.1%.
In the case of `O=C(Nc1cccc2nsnc12)c1ccc2c(c1)OCCO2`, the activity change, negative = inhibition is reported as inconclusive: -54.6%.
With `O=C(CN1CCCCCC1)N/N=C/c1cccc(Cl)c1Cl` the activity change, negative = inhibition was inconclusive: -44.5%.
In the case of `CCn1cc(C2=NOC(C(=O)Nc3cccc(C(C)=O)c3)C2)c(C)n1` (centres undefined), the activity change, negative = inhibition is reported as active: -64.5%.
In the case of `COc1ccc(N2CC(C(=O)N[C@@H](C)C(=O)NC3CCCCC3)CC2=O)cc1` (some centres undefined), the activity change, negative = inhibition is reported as inactive: -23.9%.
In the case of `COc1ccc(NC(=O)c2cc(-c3ccccc3)nc3c2cnn3C(C)C)c(OC)c1`, the activity change, negative = inhibition is reported as inactive: -37%.
With `CC(C)Sc1nnc([C@@H](N)Cc2c[nH]c3ccccc23)o1` the activity change, negative = inhibition was inconclusive: -46.4%.
With `CN(C)c1ccc(C(=S)N2CCN(Cc3ccccc3)CC2)cc1` the activity change, negative = inhibition was inconclusive: -42.8%.
In the case of `COc1cc2c(Cc3ccccc3)cncc2cc1O`, the activity change, negative = inhibition is reported as inconclusive: -48.8%.
With `O=C(Nc1ccc(F)cc1)c1ccc(CN2CC(=O)N3CCCCC3C2=O)cc1` (centres undefined) the activity change, negative = inhibition was inconclusive: -49.6%.
With `C/C=C/COC(=O)c1[nH]c2c(c1C)C(=O)CC(c1ccco1)C2` (centres undefined) the activity change, negative = inhibition was active: -65.3%.
For `CCCCCCN(C(=O)CCCCCN1C(=O)NC(c2ccc(Cl)cc2)C(C(=O)OCc2ccccc2)=C1C)C(C(=O)NCCCC)c1ccc(OCC(=O)OC)c(C(=O)OC)c1` (centres undefined), the activity change, negative = inhibition was inconclusive: -47.8%.
For `COc1ccc(CC(C)N2CCN(c3cccc(C(F)(F)F)c3)CC2)cc1OC` (centres undefined), the activity change, negative = inhibition was inconclusive: -47.8%.
With `CCOc1ccc(N(CC(=O)N/N=C(\C)c2cccc(NC(C)=O)c2)S(=O)(=O)c2ccccc2)cc1` the activity change, negative = inhibition was inconclusive: -51.4%.
For `CSC1(SC2=NCCN2)SC2(NCCN2)S1`, the activity change, negative = inhibition was inconclusive: -48.4%.
For `CN(C)C(=O)c1ccc(NC(=O)CSc2nc3ccccc3[nH]2)cc1`, the activity change, negative = inhibition was inconclusive: -41.9%.
In the case of `CC(=O)C(=Cc1cccc(C#N)c1)C(=O)c1ccccc1`, the activity change, negative = inhibition is reported as inconclusive: -59.3%.
With `O=C(Nc1nccs1)c1ccc(S(=O)(=O)NCC2CCCCC2)cc1` the activity change, negative = inhibition was active: -82.5%.
For `O=C(CN1C(=O)NC2(CCCCC2)C1=O)Nc1ccc2c(c1)OCCCO2`, the activity change, negative = inhibition was inactive: 4.51%.
For `COc1ccc(CCNC(=O)c2nnc(CS(=O)(=O)c3ccccc3)o2)cc1OC`, the activity change, negative = inhibition was inactive: -33.4%.
For `CCOc1ncccc1C(=O)OCC(=O)N(CC)c1ccccc1`, the activity change, negative = inhibition was inconclusive: -41.8%.
For `O=C(c1ccco1)N1CCN(C(=O)c2ccc(-c3cccc(C(F)(F)F)c3)o2)CC1`, the activity change, negative = inhibition was inactive: -23%.
With `COc1ccc(OC)c(NC(=O)C2CCCN(S(=O)(=O)c3ccc4[nH]c(=O)ccc4c3)C2)c1` (centres undefined) the activity change, negative = inhibition was inconclusive: -43%.
In the case of `Cc1cc(C)c(S(=O)(=O)N2CCCC(C(=O)NC3CC3)C2)c(C)c1` (centres undefined), the activity change, negative = inhibition is reported as inconclusive: -48.8%.
For `O=C(CSc1nc2ccc(Cl)cc2[nH]1)c1c[nH]c2ccccc12`, the activity change, negative = inhibition was inactive: -1.17%.
In the case of `O=C(COc1ccccc1-c1ccccc1)N/N=C/c1ccncc1`, the activity change, negative = inhibition is reported as inactive: -37.7%.
In the case of `OC(CCc1ccncc1)COc1ccccc1` (centres undefined), the activity change, negative = inhibition is reported as inconclusive: -47.4%.
With `CCCCCCc1cc2cc(C(=O)Nc3ccc(OC)cc3)c(=O)oc2cc1O` the activity change, negative = inhibition was active: -61.1%.
With `Nc1c(Br)cc([N+](=O)[O-])cc1[N+](=O)[O-]` the activity change, negative = inhibition was inconclusive: -47.2%.
In the case of `CCOC(=O)/C=C1\CN(Cc2cc(OC)c(OC)c(OC)c2)S(=O)(=O)c2ccc(C(F)(F)F)cc21`, the activity change, negative = inhibition is reported as inconclusive: -51.4%.
In the case of `CCCCNc1nc(Oc2ccc(=O)n(-c3ccccc3)n2)nc(N(CC)CC)n1`, the activity change, negative = inhibition is reported as inactive: -30.6%.
For `CCCCN(CCCNC(=O)C1CCN(C(=O)c2cc3sccc3n2C)CC1)Cc1ccccc1`, the activity change, negative = inhibition was inconclusive: -52.8%.
With `COc1cc2ccccc2cc1C(=O)NC(=S)Nc1cc(C(=O)O)ccc1C` the activity change, negative = inhibition was inconclusive: -41.8%.
With `Cc1csc2nc(O)c(C(=O)NC3CCCCCC3)c(=O)n12` the activity change, negative = inhibition was inconclusive: -50.8%.
With `O=C(O)CCC(=O)N1N=C(c2c(-c3ccccc3)c3cc(Cl)ccc3[nH]c2=O)CC1c1ccccc1` (centres undefined) the activity change, negative = inhibition was inconclusive: -59.2%.
With `O=C(COc1ccc(F)cc1)N1c2ccccc2CCc2ccccc21` the activity change, negative = inhibition was inconclusive: -50.9%.
For `Cn1c(-c2ccccc2)cc2c3no[n+]([O-])c3ccc21`, the activity change, negative = inhibition was active: -102%.
With `Cc1nc(N2CCOCC2)c2c(C(=O)N(C)Cc3ccccc3)c(C)oc2n1` the activity change, negative = inhibition was inactive: 0.964%.
For `Cc1ccc(C2=NCCn3c2c2ccc([N+](=O)[O-])cc2[n+]3[O-])cc1`, the activity change, negative = inhibition was inactive: 17.4%.
In the case of `CNC(=O)C1CC(=O)N(Cc2ccc3c(c2)OCO3)C(=Nc2ccc(OC)cc2)S1` (centres undefined), the activity change, negative = inhibition is reported as inactive: -7.35%.
In the case of `O=C(c1cn(-c2ccccc2)nc1-c1cccc([N+](=O)[O-])c1)N1CCCCC1`, the activity change, negative = inhibition is reported as inconclusive: -46.6%.
With `Fc1ccc(C[n+]2c(-c3ccccc3)cc(-c3ccccc3)cc2-c2ccccc2)cc1` the activity change, negative = inhibition was active: -84.3%.
